Measured values as given in PubChem BioAssay AID1671190 (National Center for Advancing Translational Sciences (NCATS), 2021).
Values joined by “and” are separate entries in the source; they are usually repeats but may differ in a detail not shown here. Equal entries are not always repeated. In all, about 580,000 compounds went through this assay and about 6,100 (1.1%) were called active. The inconclusive results got no clear call from the source; some entries with a clear call stand among them for comparison. The call rests on the fitted dose curve; in most records, active means well fitted inhibition curve with a large enough effect; inconclusive means small, poorly fitted or top-dose-only effect, or another doubt; inactive means no such curve, though single readings can be large or run the other way. Potencies of inconclusive entries are doubtful fits and often do not repeat.

Sequences of proteins named here, by UniProt entry; tags and fusion partners are left off. A change or cut given only in a name is not applied to a line headed by its entry.
UniProt P18054: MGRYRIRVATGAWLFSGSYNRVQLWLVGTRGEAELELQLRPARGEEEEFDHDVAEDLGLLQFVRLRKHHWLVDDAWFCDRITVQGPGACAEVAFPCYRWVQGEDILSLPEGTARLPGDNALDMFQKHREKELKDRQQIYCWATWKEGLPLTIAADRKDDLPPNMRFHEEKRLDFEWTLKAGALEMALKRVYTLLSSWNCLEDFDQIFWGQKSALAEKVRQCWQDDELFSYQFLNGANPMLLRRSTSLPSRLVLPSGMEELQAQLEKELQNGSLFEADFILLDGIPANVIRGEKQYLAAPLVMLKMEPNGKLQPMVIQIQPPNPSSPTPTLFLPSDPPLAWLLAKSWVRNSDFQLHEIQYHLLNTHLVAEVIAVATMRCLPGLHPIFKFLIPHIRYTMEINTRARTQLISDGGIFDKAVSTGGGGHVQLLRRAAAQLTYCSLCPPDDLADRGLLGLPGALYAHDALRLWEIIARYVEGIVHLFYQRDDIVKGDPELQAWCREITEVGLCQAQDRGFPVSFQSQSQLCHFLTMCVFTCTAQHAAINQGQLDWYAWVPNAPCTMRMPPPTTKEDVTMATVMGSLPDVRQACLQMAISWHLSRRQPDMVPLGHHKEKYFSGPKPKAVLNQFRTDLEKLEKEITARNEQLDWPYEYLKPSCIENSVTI

The molecules below were run against Polyunsaturated fatty acid lipoxygenase ALOX12 (Homo sapiens) (UniProt P18054) (assay: Primary qHTS assay for inhibitors of human arachidonate 12S-lipoxygenase (ALOX12): Round 2). Conditions: purified 12hLO, xylenol orange hydroperoxide absorbance; series mostly up to 108 µM.
How it was run: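 Hydroperoxide product was detected by ferrous iron/xylenol orange as the 573 to 405 nm absorbance ratio. Arachidonic acid at 40 uM (final) was turned over for 30 min at room temperature by 150 nM human 12hLO, pH 7.0 Hepes buffer, after 15 min compound preincubation.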
Potency means the concentration at half of the fitted maximal effect.

Q: For `O=C(CSc1nc(=O)n(Cc2cccnc2)c2c1CCC2)N1CCCCC1`, which Potency is on record?
A: inactive

Q: How did the Potency turn out when `O=C(CN1CCCCCC1)Nc1cc([N+](=O)[O-])ccc1Cl` was run?
A: inconclusive: 50.1 µM [inhibitor, single point]

Q: Which Potency does the source give for `CN(Cc1ccco1)c1nc(-c2ccoc2)nc2ccccc12` here?
A: inconclusive: 39.8 µM [inhibitor, partial curve]

Q: Which Potency does the source give for `O=C(NNC(=O)c1cc(Cl)ccc1O)c1cccc(S(=O)(=O)N2CCOCC2)c1` here?
A: inconclusive: 14.1 µM [inhibitor, partial curve, poor fit]

Q: How did the Potency turn out when `Cc1cc2c(c(=O)n1CCN(C)C)C(c1cccc(Br)c1)C(C#N)=C(N)O2` (stereo unspecified) was run?
A: inactive

Q: With `COc1ccc(OC)c(/C=N/NC(=O)CCc2ccc(O)c(O)c2)c1` as the molecule, how does the Potency read?
A: inconclusive: 31.6 µM [inhibitor, full curve, poor fit]

Q: `Cc1ccc(NC(=O)CN2C(=O)S/C(=C\c3cc(Cl)c(OCC(=O)O)c(Cl)c3)C2=O)cc1` was tested. Which Potency did it give?
A: inactive

Q: `Cc1ccc(C(=O)Nc2cccc(-c3nc(CNC(=O)[C@@H]4C[C@@H](C)NC(=S)N4)c(C)o3)c2)s1` was tested. Which Potency did it give?
A: inconclusive: 126 µM [inhibitor, single point]

Q: For `COc1ccc(/C=N/Nc2ccccc2)cc1Cn1nc(C)c([N+](=O)[O-])c1C`, which Potency is on record?
A: inconclusive: 31.6 µM [inhibitor, single point]

Q: Which Potency does the source give for `O=C(NC(=S)Nc1ccccc1)c1cc(-c2ccccc2)nc2ccccc12` here?
A: inconclusive: 2.82 µM [inhibitor, full curve, poor fit]

Q: With `COc1ccc2c3n(nc2c1)CCN=C3c1cc(Cl)c(N)c(Cl)c1` as the molecule, how does the Potency read?
A: inconclusive: 50.1 µM [inhibitor, partial curve, poor fit]

Q: Which Potency does the source give for `C[C@@H]1ON(C)[C@H]2C[C@H]3c4[nH]c5ccc(-c6ccc7c(c6)OCO7)cc5c4CCN3C[C@@H]12` here?
A: inconclusive: 31.6 µM [inhibitor, partial curve, poor fit]

Q: How did the Potency turn out when `CSc1cccc(NC(=O)Cn2nnc(C(=O)NCCc3ccccc3)c2N)c1` was run?
A: inconclusive: 89.1 µM [inhibitor, single point]

Q: How did the Potency turn out when `CCOC(=O)C1CCN(Cc2cccc(OC)c2)CC1` was run?
A: inconclusive: 3.55 µM [inhibitor, full curve, poor fit]

Q: How did the Potency turn out when `COCCn1c(COc2ccc(C(C)(C)c3ccccc3)cc2)n[nH]c1=S` was run?
A: active: 15.8 µM

Q: With `CCCCCCN1C[C@H](n2cc(C3CC3)nn2)[C@@H](O)C[C@@H]1c1ccccc1` as the molecule, how does the Potency read?
A: inconclusive: 39.8 µM [inhibitor, partial curve, poor fit]

Q: For `O=C1c2[nH]nc(-c3ccccc3O)c2C(c2ccc(F)cc2)N1Cc1ccco1` (stereo unspecified), which Potency is on record?
A: inactive

Q: How did the Potency turn out when `COc1ccc(CNC(=O)N2CCN(C(=O)c3ccccc3)CC2)cc1` was run?
A: inconclusive: 56.2 µM [inhibitor, partial curve, poor fit]

Q: `O=C1CCN(C(=O)C2CC=CC2)CCCC(c2nc(-c3cccnc3)no2)CCN1` (stereo unspecified) was tested. Which Potency did it give?
A: inactive

Q: For `O=C(c1ccsc1)N1CCC(Cc2nc(C3CCOCC3)no2)CC1`, which Potency is on record?
A: inactive

Q: Which Potency does the source give for `O=S(=O)(Nn1cnnc1)c1ccccc1` here?
A: inactive

Q: `Oc1oc(-c2ccccc2)nc1/C=N/c1nccs1` was tested. Which Potency did it give?
A: inactive

Q: For `c1cc2c3c(cccc3c1)NN=N2`, which Potency is on record?
A: inconclusive: 35.5 µM [inhibitor, partial curve]

Q: How did the Potency turn out when `COc1ccc(CCN2C(=O)N(c3ccc(F)cc3)C(=O)C2CC(=O)Nc2ccc(F)c(F)c2)cc1` (stereo unspecified) was run?
A: inconclusive: 89.1 µM [inhibitor, single point]

Q: How did the Potency turn out when `Cc1cccc(Nc2nnc(Cc3ccccc3)c(=O)[nH]2)c1` was run?
A: inactive

Q: `Cc1ccc(S(=O)(=O)N(C)C(C)c2cc3ccccc3o2)c(C)c1` (stereo unspecified) was tested. Which Potency did it give?
A: inactive

Q: How did the Potency turn out when `Nc1ccc(-c2ccc(N)cc2C(F)(F)F)c(C(F)(F)F)c1` was run?
A: inconclusive: 50.1 µM [inhibitor, partial curve, poor fit]

Q: How did the Potency turn out when `CCCc1ccc(OCC(O)CN2CCN(c3ccccc3)CC2)cc1` (stereo unspecified) was run?
A: inconclusive: 50.1 µM [inhibitor, partial curve, poor fit]

Q: Which Potency does the source give for `CC1(C)CNC(=O)c2sc(NC(=O)CN3CCOCC3)nc2C1` here?
A: inactive

Q: For `O=C(NNS(=O)(=O)c1ccc([N+](=O)[O-])cc1)C(=O)Nc1cccc(C(=O)O)c1`, which Potency is on record?
A: inconclusive: 1.26 µM [inhibitor, full curve, poor fit]

Q: For `Cc1cc(NC(=O)Nc2csc3c2CCCC3)ccc1Br`, which Potency is on record?
A: inactive

Q: Which Potency does the source give for `S=c1[nH]nc(Cc2c[nH]c3ccccc23)o1` here?
A: inconclusive: 44.7 µM [inhibitor, partial curve, poor fit]

Q: `CCn1nc(C(=O)OCC(=O)Nc2ncc(Cl)c(C)c2Cl)c2ccccc2c1=O` was tested. Which Potency did it give?
A: inconclusive: 100 µM [inhibitor, partial curve, poor fit] and inconclusive: 15.8 µM [inhibitor, partial curve, poor fit]

Q: How did the Potency turn out when `O=C(CNc1ccc(Cl)c(C(F)(F)F)c1)N1CCN(S(=O)(=O)c2ccccc2)CC1` was run?
A: inconclusive: 20 µM [inhibitor, partial curve, poor fit]

Q: Which Potency does the source give for `CCCc1cc(=O)[nH]c(SCc2nc(-c3ccc(C)c(F)c3)no2)n1` here?
A: inconclusive: 35.5 µM [inhibitor, partial curve, poor fit]

Q: For `CCCCn1nnnc1C(c1ccccc1)N1CCN(c2ncc(C(F)(F)F)cc2Cl)CC1` (stereo unspecified), which Potency is on record?
A: inactive

Q: `COCCN(CCOC)C(=O)c1cc(-c2ccco2)nc2ccccc12` was tested. Which Potency did it give?
A: inconclusive: 28.2 µM [inhibitor, partial curve]

Q: For `C[C@@H]1CN([C@@H](C)CO)C(=O)c2cc(NC(=O)Nc3ccc(F)cc3)ccc2O[C@@H]1CN(C)Cc1ccc(Oc2ccccc2)cc1`, which Potency is on record?
A: inconclusive: 89.1 µM [inhibitor, partial curve, poor fit]

Q: `O=[N+]([O-])c1ccc(COc2cccc(CN3CCCC3)c2)cc1` was tested. Which Potency did it give?
A: inconclusive: 35.5 µM [inhibitor, partial curve, poor fit]

Q: With `Cc1oc2cc3oc(=O)c(CCC(=O)NCCCN4CCOCC4)c(C)c3cc2c1C` as the molecule, how does the Potency read?
A: inactive

Q: How did the Potency turn out when `COc1ccc(/C=C(/C#N)c2ccc(C(F)(F)F)cn2)cc1OC` was run?
A: inconclusive: 100 µM [inhibitor, single point]
